Measurements taken from PubChem BioAssay AID256 (DTP/NCI, 2004).
The list is a part of this screen's results and no random one: it is rich in T/C values a quarter to a half above the control, in often repeated tests (any T/C) and in doses without a T/C. Other doses and runs of a compound stand elsewhere. T/C: endpoint of the treated group in % of that of the vehicle group. Some doses have a count of surviving animals in place of a T/C: the source files T/C as zero there, which appears to mark a toxic dose or a test without result, not a measured value. Some survivor counts are full or nearly so, which does not show that the dose was tolerated: the source hardly ever lists a survival T/C far under the control, and the zero likely stands for such cases as well. Counts of survivors are from the toxicity check (mostly the fifth day) where no day follows; animals may have died later. Schedules are NCI's codes, read here as Q, the interval in days (D) or hours (H), X, the number of doses. Some doses were run more than once; their values stand side by side, smallest first. Where survival is the endpoint, the PubChem record calls one and a half times the control and up active, and a quarter to a half above the control has no call in these data; cut-offs in other NCI protocols can differ. Some T/C values are followed by the survivors on the day toxicity was checked, most often the fifth; where none is given, no animal had died by that day.

System: CD2F1 mice, L1210 leukemia ip, survival T/C
Assay: NCI In Vivo Anticancer Drug Screen. Data for tumor model L1210 Leukemia (intraperitoneal) in CD2F1 (CDF1) mice
Conditions: higher T/C = longer survival
Outline: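 Each value reflects a quotient of treated over vehicle control outcomes in mice with a transplanted tumor.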

[1] = T/C endpoint: median survival time, dose: 200.0 mg/kg/injection, schedule: Q04DX003 (ip), vehicle: saline with Tween-80
[2] = T/C endpoint: mean survival time, dose: 2.5 mg/kg/injection, schedule: Q01DX009 (ip), vehicle: saline
[3] = T/C endpoint: mean survival time, dose: 25.0 mg/kg/injection, schedule: Q01DX009 (ip), vehicle: saline with Tween-80

**Q.** For `O=S(=O)(Cl)c1cccc2c(S(=O)(=O)Cl)cccc12`, which T/C (T/C endpoint: mean survival time, dose: 100.0 mg/kg/injection, schedule: Q04DX003 (ip), vehicle: Klucel (hydroxypropylcellulose) (HPC)) is on record?
**A.** 125 % of control

**Q.** How did the survivor count [1] turn out when `CCOC(=O)/N=C/N(C)C` was run?
**A.** 0 of 3

**Q.** How did the survivor count (T/C endpoint: mean survival time, dose: 400.0 mg/kg/injection, schedule: Q04DX002 (ip), vehicle: other) turn out when `Cc1ccc(C2=CSc3ccccc3N2)cc1` was run?
**A.** 1 of 3

**Q.** For `COc1ccc2c[n+](C)c3c4cc(OC)c(OC)cc4ccc3c2c1`, which survivor count (T/C endpoint: mean survival time, dose: 50.0 mg/kg/injection, schedule: Q04DX003 (ip), vehicle: saline with Tween-80) is on record?
**A.** 1 of 3

**Q.** What about the survivor count (T/C endpoint: mean survival time, dose: 100.0 mg/kg/injection, schedule: Q04DX003 (ip), vehicle: saline with Tween-80) of the same molecule?
**A.** 1 of 3

**Q.** For `COc1ccc(OC)c(NC(=O)Nc2cc([N+](=O)[O-])ccc2Cl)c1`, which survivor count (T/C endpoint: mean survival time, dose: 400.0 mg/kg/injection, schedule: Q01DX001 (ip), vehicle: saline with Tween-80) is on record?
**A.** 6 of 6

**Q.** `C/C=C(\C)c1cc(=O)c2c(C)cc3c(c2o1)C(=O)c1c(O)c(C2CC(C)(N(C)C)C(O)C(C)O2)cc(C2CC(N(C)C)C(O)C(C)O2)c1C3=O` (stereo not drawn) was tested. Which T/C [2] did it give?
**A.** 127 % of control

**Q.** What about the survivor count [2] of the same molecule?
**A.** 5 of 6

**Q.** What about the survivor count (T/C endpoint: mean survival time, dose: 5.0 mg/kg/injection, schedule: Q01DX009 (ip), vehicle: saline) of the same molecule?
**A.** 0 of 6 and 4 of 6

**Q.** And the survivor count (T/C endpoint: mean survival time, dose: 6.25 mg/kg/injection, schedule: Q01DX009 (ip), vehicle: saline with Tween-80)?
**A.** 5 of 6

**Q.** What about the survivor count (T/C endpoint: mean survival time, dose: 12.5 mg/kg/injection, schedule: Q01DX009 (ip), vehicle: saline with Tween-80) of the same molecule?
**A.** 3 of 6

**Q.** What about the survivor count [3] of the same molecule?
**A.** 0 of 6

**Q.** And the T/C (T/C endpoint: mean survival time, dose: 312.5 micrograms/kg/injection, schedule: Q01DX009 (ip), vehicle: saline)?
**A.** 129 % of control

**Q.** And the survivor count (T/C endpoint: median survival time, dose: 25.0 mg/kg/injection, schedule: Q01DX001 (ip), vehicle: saline with Tween-80)?
**A.** 0 of 3

**Q.** What about the survivor count (T/C endpoint: median survival time, dose: 25.0 mg/kg/injection, schedule: Q04DX003 (ip), vehicle: saline with Tween-80) of the same molecule?
**A.** 1 of 3

**Q.** And the survivor count (T/C endpoint: median survival time, dose: 50.0 mg/kg/injection, schedule: Q01DX001 (ip), vehicle: saline with Tween-80)?
**A.** 0 of 3

**Q.** What about the survivor count (T/C endpoint: median survival time, dose: 50.0 mg/kg/injection, schedule: Q04DX003 (ip), vehicle: saline with Tween-80) of the same molecule?
**A.** 0 of 3

**Q.** What about the survivor count (T/C endpoint: median survival time, dose: 100.0 mg/kg/injection, schedule: Q01DX001 (ip), vehicle: saline with Tween-80) of the same molecule?
**A.** 0 of 3

**Q.** What about the survivor count (T/C endpoint: median survival time, dose: 100.0 mg/kg/injection, schedule: Q04DX003 (ip), vehicle: saline with Tween-80) of the same molecule?
**A.** 0 of 3

**Q.** What about the survivor count (T/C endpoint: median survival time, dose: 200.0 mg/kg/injection, schedule: Q01DX001 (ip), vehicle: saline with Tween-80) of the same molecule?
**A.** 0 of 3

**Q.** What about the survivor count [1] of the same molecule?
**A.** 0 of 3

**Q.** What does the source list for `O=C1CC2CC1C1C3CCC(CC3)C21` (stereo not drawn)?
**A.** survivor count [3]: 0 of 3; survivor count (T/C endpoint: mean survival time, dose: 50.0 mg/kg/injection, schedule: Q01DX009 (ip), vehicle: saline with Tween-80): 0 of 3

**Q.** With `CN(C)CCCCNc1ccc(NCCCCN(C)C)c2c1C(=O)c1c(O)ccc(O)c1C2=O` as the molecule, how does the survivor count (T/C endpoint: mean survival time, dose: 200.0 mg/kg/injection, schedule: Q01DX009 (ip), vehicle: saline) read?
**A.** 3 of 6

**Q.** For `NC/C(=N\O)c1ccc(Cl)cc1`, which survivor count (T/C endpoint: mean survival time, dose: 400.0 mg/kg/injection, schedule: Q01DX001 (ip), vehicle: saline) is on record?
**A.** 2 of 6

**Q.** How did the T/C (T/C endpoint: mean survival time, dose: 200.0 mg/kg/injection, schedule: Q01DX009 (ip), vehicle: other) turn out when `NC(CSC(c1ccccc1)(c1ccccc1)c1ccc(CBr)cc1)C(=O)O` (stereo not drawn) was run?
**A.** 140 % of control [4 of 6 alive]

**Q.** How did the survivor count (T/C endpoint: mean survival time, dose: 400.0 mg/kg/injection, schedule: Q04DX003 (ip), vehicle: saline with Tween-80) turn out when `COC(=O)c1cncn1C(C)c1cccc2ccccc12` (stereo not drawn) was run?
**A.** 4 of 6

**Q.** With `C/C=C/C(OC(C)=O)OC(C)=O` as the molecule, how does the survivor count (T/C endpoint: mean survival time, dose: 400.0 mg/kg/injection, schedule: Q01DX009 (ip), vehicle: saline with Tween-80) read?
**A.** 0 of 6

**Q.** What does the source list for `CC(C)CCn1cnc2c(=S)nc(N)[nH]c21`?
**A.** T/C (T/C endpoint: mean survival time, dose: 50.0 mg/kg/injection, schedule: Q01DX001 (ip), vehicle: saline with Tween-80): 146 % of control; T/C (T/C endpoint: mean survival time, dose: 100.0 mg/kg/injection, schedule: Q01DX001 (ip), vehicle: saline with Tween-80): 125 % of control

**Q.** For `CN(N=O)C(=O)Nc1ccc(C2CC(=O)N(C)C2=O)cc1` (stereo not drawn), which T/C (T/C endpoint: mean survival time, dose: 100.0 mg/kg/injection, schedule: Q01DX001 (ip), vehicle: distilled water + Tween-80) is on record?
**A.** 127 % of control

**Q.** What about the T/C (T/C endpoint: mean survival time, dose: 200.0 mg/kg/injection, schedule: Q01DX001 (ip), vehicle: distilled water + Tween-80) of the same molecule?
**A.** 127 % of control

**Q.** With `NCc1ncn[nH]1` as the molecule, how does the survivor count (T/C endpoint: mean survival time, dose: 400.0 mg/kg/injection, schedule: Q04DX003 (ip), vehicle: saline) read?
**A.** 4 of 6
